Test results from PMC4998439.
No constants are given. Whether binding was seen depends on the method and setting. In cells and extracts the contact can be indirect. Some results given as binding are weak or reduced against the parent protein; the word gives no strength.

Amino acid sequences for entries named in this document (tags omitted). Residues count along the entry.
UniProt O75581, residues 20-1613: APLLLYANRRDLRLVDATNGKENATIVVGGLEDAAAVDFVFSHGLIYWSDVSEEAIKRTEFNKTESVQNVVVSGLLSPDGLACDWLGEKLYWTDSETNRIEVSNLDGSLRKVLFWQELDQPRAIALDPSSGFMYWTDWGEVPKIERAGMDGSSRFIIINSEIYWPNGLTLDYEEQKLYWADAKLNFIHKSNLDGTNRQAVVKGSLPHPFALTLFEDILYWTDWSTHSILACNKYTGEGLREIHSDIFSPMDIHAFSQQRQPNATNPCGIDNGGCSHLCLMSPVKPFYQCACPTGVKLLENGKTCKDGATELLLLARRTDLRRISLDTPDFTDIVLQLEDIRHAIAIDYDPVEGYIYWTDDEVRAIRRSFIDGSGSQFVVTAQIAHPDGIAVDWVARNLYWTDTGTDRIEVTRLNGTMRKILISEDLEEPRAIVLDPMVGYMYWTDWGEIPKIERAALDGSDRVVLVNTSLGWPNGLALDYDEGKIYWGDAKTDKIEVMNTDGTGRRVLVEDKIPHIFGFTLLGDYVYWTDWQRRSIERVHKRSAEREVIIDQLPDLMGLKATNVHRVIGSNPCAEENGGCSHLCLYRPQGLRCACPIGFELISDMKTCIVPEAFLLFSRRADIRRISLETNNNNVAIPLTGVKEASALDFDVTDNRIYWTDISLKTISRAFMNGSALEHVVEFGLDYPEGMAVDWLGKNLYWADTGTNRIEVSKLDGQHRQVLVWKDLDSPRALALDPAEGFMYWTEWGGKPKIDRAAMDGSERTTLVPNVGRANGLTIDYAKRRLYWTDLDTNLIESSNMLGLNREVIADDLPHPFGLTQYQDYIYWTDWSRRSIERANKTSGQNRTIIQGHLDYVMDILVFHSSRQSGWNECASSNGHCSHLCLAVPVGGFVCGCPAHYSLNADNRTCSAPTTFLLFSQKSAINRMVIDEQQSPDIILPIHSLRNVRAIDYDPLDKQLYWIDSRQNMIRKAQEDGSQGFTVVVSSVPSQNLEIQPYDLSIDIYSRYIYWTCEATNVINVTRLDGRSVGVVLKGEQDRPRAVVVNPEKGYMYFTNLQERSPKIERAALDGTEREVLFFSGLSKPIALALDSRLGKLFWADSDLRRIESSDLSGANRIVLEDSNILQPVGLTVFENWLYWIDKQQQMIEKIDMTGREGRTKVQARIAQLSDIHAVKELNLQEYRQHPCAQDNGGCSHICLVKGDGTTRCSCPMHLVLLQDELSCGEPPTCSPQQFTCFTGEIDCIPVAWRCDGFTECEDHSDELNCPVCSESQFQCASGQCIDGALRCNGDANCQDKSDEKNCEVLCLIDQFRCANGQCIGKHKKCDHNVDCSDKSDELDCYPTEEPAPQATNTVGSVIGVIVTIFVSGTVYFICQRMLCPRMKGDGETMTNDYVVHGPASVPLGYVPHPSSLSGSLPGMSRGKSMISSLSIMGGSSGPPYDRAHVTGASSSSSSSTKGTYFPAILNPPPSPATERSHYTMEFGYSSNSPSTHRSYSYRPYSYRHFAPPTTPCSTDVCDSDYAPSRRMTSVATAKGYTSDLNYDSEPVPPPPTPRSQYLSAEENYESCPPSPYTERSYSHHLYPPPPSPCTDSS

Biological target: low-density lipoprotein receptor-related protein 6 (human (endogenous in bone biopsies)) (UniProt O75581)
Test: co-IP; lysates of metastatic bone lesions (breast, lung, prostate primaries) and multiple myeloma bone lesions in 1% TX-100, 150 mM NaCl, Tris-HCl pH 8, 1 mM MgCl2 and CaCl2; anti-Dickkopf-1 or anti-Lrp6 antibody (1.5 ug/mL) with Protein A/G PLUS agarose, cold room, 6 hours; Western blot

binding: binds
B1: Dickkopf-1 (protein, UniProt O94907 32-266)
chain: TLNSVLNSNAIKNLPPPLGGAAGHPGSAVSAAPGILYPGGNKYQTIDNYQPYPCAEDEECGTDEYCASPTRGGDAGVQICLACRKRRKRCMRHAMCCPGNYCKNGICVSSDQNHFRGEIEETITESFGNDHSTLDGYSRRTTLSSKMYHTKGQEGSVCLRSSDCASGLCCARHFWSKICKPVLKEGQVCTKHRRKGSHGLEIFQRCYCGEGLSCRIQKDHHQASNSSRLHTCQRH
